Experimental findings from the supplement of paper PMC8256030 are described below.

Several values for one entry are separate records, joined by “and”; a condition that tells them apart may be missing. Identical values can stand only once. The list shows a part of the results. This data set is noisy: repeats of one test often differ as much as different tests do.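 HEK293T cells were given each compound shortly before transfection with a reporter in which red mCherry is followed by the SARS-CoV-2 frameshift element and then GFP in the −1 frame, so GFP appears only after frameshifting.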

This assay relates to HEK293T. Description: percent viability (nuclei count) relative to control; higher = more viable cells. As to conditions: 10 µM; 24 h.
With `CC(O)(P(=O)(O)O)P(=O)(O)O` [etidronic acid], the percent viability turned out to be 257%. To `O=C(O)CCn1c2c(c3ccccc31)C[C@H](NS(=O)(=O)c1ccc(F)cc1)CC2` [ramatroban] belongs 173%; to `CCOc1ccc(NC(=S)Nc2ccc(OCC)cc2)cc1` [etocarlide], 122%; to `Clc1ccccc1CN1CCc2sccc2C1`, 321%.

For the compound `CCCc1c2c(c(O)c3c(=O)cc(C(=O)O)oc13)CCCC2` [proxicromil], the percent viability was 174%. To `COc1cccc(N(C)C(=S)Oc2ccc3c(c2)CCCC3)n1` [liranaftate] belongs 212%; to `NS(=O)(=O)c1ccc(-n2nc(C(F)(F)F)cc2-c2ccc(F)cc2)cc1` [mavacoxib], 435%.

Regarding `CCN(CC)CCCC(C)Nc1ccnc2cc(Cl)ccc12` (centres undefined) [chloroquine], the percent viability amounted to 113%. Turning to `O=C(Nc1cc(Cl)cc(Cl)c1O)c1c(O)c(Cl)cc(Cl)c1Cl` [oxyclozanide], the percent viability was determined as 257%. The figure for `C[C@H]1[C@H](NC(=O)/C(=N\OC(C)(C)C(=O)O)c2csc(N)n2)C(=O)N1S(=O)(=O)O` is 195%; for `CC(=O)OC/C=C(C)/C=C/C=C(C)/C=C/C1=C(C)CCCC1(C)C` [Vitamin A acetate] it is 299%; for `Cc1cccc(C(=O)O)c1O` it is 229%. The figure for `CCOc1ccc(NC(C)=O)cc1` [phenacetin] is 166%; for `Nc1c(CC(=O)O)cccc1C(=O)c1ccc(Br)cc1` [bromfenac] it is 228%.

On to `Fc1ccc(Cn2c(NC3CCNCC3)nc3ccccc32)cc1` [tecastemizole], for which the percent viability is 450%.

Take `O=C(O)c1cc(=O)c2c(OCC(O)COc3cccc4oc(C(=O)O)cc(=O)c34)cccc2o1` [Disodium Cromoglycate]: the percent viability turned out to be 282%. The figure for `NS(=O)(=O)c1cc2c(cc1Cl)N=CNS2(=O)=O` [chlorothiazide] is 193%. The figure for `OC[C@@H](O)[C@@H](O[C@@H]1O[C@H](CO)[C@H](O)[C@H](O)[C@H]1O)[C@H](O)[C@@H](O)CO` [lactitol] is 55.8%.

`CCCC(=O)Nc1ccc(OCC(O)CNC(C)C)c(C(C)=O)c1` (centres undefined) [acebutolol]: the percent viability was 167%. Consider `O=C(O)Cc1ccccc1Nc1c(Cl)cccc1Cl` [diclofenac], for which the percent viability was 246% and 146%. The figure for `O=C(Nc1ccc(C(=O)O)c(O)c1)c1ccccc1` is 254%; for `N[C@@H](Cc1cc(I)c(Oc2cc(I)c(O)c(I)c2)c(I)c1)C(=O)O` [L-thyroxine] it is 152%; for `CC1(C)[C@@H](OC(=O)CCC(=O)O)CC[C@]2(C)[C@H]3C(=O)C=C4[C@@H]5C[C@@](C)(C(=O)O)CC[C@]5(C)CC[C@@]4(C)[C@]3(C)CC[C@@H]12` [carbenoxolone] it is 256%. The figure for `CCc1nn(CCCN2CCN(c3cccc(Cl)c3)CC2)c(=O)n1CCOc1ccccc1` [nefazodone] is 211%; for `Cc1cc2c(s1)Nc1ccccc1N=C2N1CCN(C)CC1` [Olanzapine] it is 152%; for `NC(=O)OCC(COC(N)=O)c1ccccc1` [felbamate] it is 192%. As for `NCCC[C@H](N)CC(=O)N[C@H]1CNC(=O)[C@H]([C@H]2C[C@H](O)NC(N)=N2)NC(=O)/C(=C/NC(N)=O)NC(=O)[C@H](CO)NC(=O)[C@H](CO)NC1=O`, the percent viability stood at 363%. As to `N=C(N)C(O)c1ccc2c(c1)OCO2` (centres undefined) [olmidine], the percent viability worked out at 272%. The figure for `NC[C@H]1O[C@H](O[C@H]2[C@H](O)[C@@H](O[C@H]3O[C@H](CO)[C@@H](O)[C@H](N)[C@H]3O)[C@H](N)C[C@@H]2N)[C@H](O)[C@@H](O)[C@@H]1O` is 152%. To `O=C(OCCOCCO)c1ccccc1Nc1cccc(C(F)(F)F)c1` [etofenamate] belongs 217%. The figure for `O=C[C@H](O)[C@H]1OC(=O)[C@@H](O)[C@H]1O` [glucurolactone] is 152%; for `CC(=O)Nc1ccc(S(=O)(=O)c2ccc(NC(C)=O)cc2)cc1` [acedapsone] it is 198%; for `O=C(O)c1c(O)c(-c2ccccc2)nc2ccccc12` [oxycinchophen] it is 118%. Consider `C[C@@H](c1nc(-c2ccc(C#N)cc2)cs1)[C@](O)(Cn1cncn1)c1cc(F)ccc1F` [isavuconazole], for which the percent viability is 63.5%. The figure for `O=C(CCCN1CCC(C(=O)c2ccc(F)cc2)CC1)c1ccc(F)cc1` [lenperone] is 91.9%; for `Cc1cc(NC(=O)C2=C(O)c3ccccc3S(=O)(=O)N2C)no1` [isoxicam] it is 71.6%.

`COc1ccc(C(=O)N2CCN(c3ccc4c(c3)CCC(=O)N4)CC2)cc1OC` [vesnarinone]: the percent viability was 235%. The figure for `O=c1cc(CN2CCOCC2)c2ccc(O)cc2o1` [oxazorone] is 161%.

Take `Cc1cc(C)cc(OCC2CNC(=O)O2)c1` (centres undefined) [metaxalone]: the percent viability amounted to 276%.
